## Primary screen of a compound library

From ChEMBL document CHEMBL3988442, “University of Dundee, Small-Polar-MMV Screening Library” (2021).

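Assay of Toxoplasma gondii numbers, read through their beta-galactosidase reporter with a colour substrate. Compounds at 50 µM. The record gives no direction; the compounds picked for IC50 retests had high values, so higher reads as fewer parasites. Of about 18,000 compounds tested this way, about 170 (0.94%) reached 50% or more in at least one test.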

Values are the deposited “Percent Effect”, in %.
The record does not define 0% and 100%; most values in the screen are far below 50% and negative numbers occur (in some assays of this library far below -100).
This is an unselected part of the compounds tested.

{"smiles": "Cc1nc2c(c(NCc3ccc(N)nc3)n1)CCCC2", "percent effect": 50.4}
{"smiles": "Cc1cc(CS(=O)(=O)c2ccccn2)no1", "percent effect": 7.581}
{"smiles": "COc1cc(CN)cc(Br)c1O", "percent effect": -2.779}
{"smiles": "CCCC(O)(CCC)CNC(=O)c1cccnc1", "percent effect": -16.05}
{"smiles": "CO[C@H]1CC[C@H](NC(=O)c2cc(C)[nH]c(=O)c2)CC1", "percent effect": 16.74}
{"smiles": "COCC1(C(=O)NCCNc2cccnc2)CCC1", "percent effect": -5.07}
{"smiles": "CNC(=O)C1CN(C(=O)Nc2cccc(Cl)c2Br)C1", "percent effect": -1.305}
{"smiles": "CCN(C(=O)NC1CC1)C(C)c1ccncc1", "stereo": "stereo not given", "percent effect": 5.868}
{"smiles": "Cc1cccc(C(=O)Nc2ncc(C)s2)n1", "percent effect": -21.41}
{"smiles": "Cc1cc(Br)cc(C(=O)NCc2nccc(N)n2)c1", "percent effect": -8.028}
{"smiles": "Cc1ccoc1C(=O)N1CCCC(C)C1", "stereo": "stereo not given", "percent effect": 2.025}
{"smiles": "Cc1nnc(SCc2ccc(F)cc2Cl)n1CC(N)=O", "percent effect": 1.307}
{"smiles": "COCCNCCn1cnc2c1c(=O)[nH]c(=O)n2C", "percent effect": 7.952}
{"smiles": "COC(=O)c1ccc(CN2CCCC(CO)C2)cc1", "stereo": "stereo not given", "percent effect": -14.35}
{"smiles": "CN(Cc1nc2ccccc2s1)S(C)(=O)=O", "percent effect": -0.1309}
{"smiles": "COCCNC(=O)c1cn(-c2cccc(Br)c2)nn1", "percent effect": -20.39}
{"smiles": "Cc1nn(-c2ccc(F)cc2)cc1CN", "percent effect": -3.262}
{"smiles": "CC(CNC(=O)NCc1cc[nH]n1)N1CCCC1", "stereo": "stereo not given", "percent effect": -1.809}
{"smiles": "COCCCNC(=O)CN1CCCC1c1ccc(C)o1", "stereo": "stereo not given", "percent effect": 10.81}
{"smiles": "CCCNC(=O)CSc1nnc(NCC2CCCO2)s1", "stereo": "stereo not given", "percent effect": -3.294}
{"smiles": "Cc1nn(C)c(C)c1C(=O)NCC1CCOC1", "stereo": "stereo not given", "percent effect": 6.701}
{"smiles": "CNC(=O)CCN1CCC(OCC2CCCCO2)CC1", "stereo": "stereo not given", "percent effect": 2.818}
{"smiles": "O=C(Nc1ccc(F)cc1Cl)N[C@@H]1CNCC[C@H]1O", "percent effect": 9.965}
{"smiles": "CC(C)C(NCC(N)=O)c1ccc(F)cc1", "stereo": "stereo not given", "percent effect": -20.23}
{"smiles": "CO[C@@H]1COCC[C@H]1NC(=O)CN(C)C1CCNCC1", "percent effect": -10.58}
{"smiles": "Cc1ccc(CNC(=O)C2COCCO2)s1", "stereo": "stereo not given", "percent effect": -6.31}
{"smiles": "COc1ccc(-c2[nH][nH]c(=O)c2CCN)cc1", "percent effect": -1.722}
{"smiles": "O=C1CN(c2ccnc3cc(Br)ccc23)CCN1", "percent effect": -7.201}
{"smiles": "O=C1CCCc2nccc(-c3ccncc3)c21", "percent effect": -20.16}
{"smiles": "C[C@H](N)c1ccc(F)cc1OC(F)F", "percent effect": 1.744}
{"smiles": "CC(C)Cc1cc(C(=O)NCC2(O)CCOCC2)[nH]n1", "percent effect": 1.938}
{"smiles": "O=C(CCN1CCCC(CO)C1)N1CCCCC1", "stereo": "stereo not given", "percent effect": 1.696}
{"smiles": "CCOC(=O)C(C)(C)N(C)CC(=O)NCc1ccco1", "percent effect": 0.1135}
{"smiles": "NC(=O)NCC1CCCN(C(=O)NC2CCCCC2)C1", "stereo": "stereo not given", "percent effect": -3.065}
{"smiles": "O=S1(=O)CCC(Oc2ccc(Br)cc2)C1", "stereo": "stereo not given", "percent effect": -5.616}
{"smiles": "NC1(c2noc(C(F)F)n2)CCC1", "percent effect": 6.489}
{"smiles": "Cc1noc(C)c1CC(=O)NC1CCc2nccn2C1", "stereo": "stereo not given", "percent effect": 39.3}
{"smiles": "COc1cc(OC)c(NC(=O)N(C)C)cc1Cl", "percent effect": -11.5}
{"smiles": "O=C1C(N2CCNCC2)CCCN1C1CCOCC1", "stereo": "stereo not given", "percent effect": 19.32}
{"smiles": "CC1(C)CNC1c1cccnc1", "stereo": "stereo not given", "percent effect": 8.143}
{"smiles": "CSCC(C)(O)CNC(=O)c1cc(C(C)C)[nH]n1", "stereo": "stereo not given", "percent effect": 2.483}
{"smiles": "COc1ccc(Nc2ncccc2S(N)(=O)=O)cc1", "percent effect": -10.25}
{"smiles": "CC(C#N)Sc1ccc(S(=O)(=O)N2CCCC2)cn1", "stereo": "stereo not given", "percent effect": -5.61}
{"smiles": "CC(C)OCCC#N", "percent effect": 11.69}
{"smiles": "CCOC(=O)CCC(=O)c1ccc2c(c1)OCCO2", "percent effect": 11.31}
{"smiles": "COc1ccc(Br)c(S(=O)(=O)N(C)C)c1", "percent effect": 2.314}
{"smiles": "CCC1(CC)CN(C(=O)NCCC(C)C)CCS1(=O)=O", "percent effect": 1.073}
{"smiles": "Cc1nc[nH]c1CN(C)CC(C)N1CCOCC1", "stereo": "stereo not given", "percent effect": -17.9}
{"smiles": "CCOCCN(C)Cc1cccnc1C", "percent effect": 3.03}
{"smiles": "FC(F)Oc1cccc(N2CCNCC2)c1", "percent effect": -20.37}
{"smiles": "CCCC(=O)NC1CCN(C(C)C)CC1", "percent effect": -14.41}
{"smiles": "CN(C)C(=O)Cn1cnc2ccsc2c1=O", "percent effect": -0.5582}
{"smiles": "OCCN1CCN(CCc2ccccc2)CC1", "percent effect": -5.179}
{"smiles": "CCn1ncnc1CN1CCC(c2noc(C)n2)CC1", "percent effect": -10.07}
{"smiles": "CC1(C)SCC(C(=O)N2CCc3[nH]cnc3C2)NC1=O", "stereo": "stereo not given", "percent effect": -13.23}
{"smiles": "Cc1ncn(CC(=O)Nc2ccccc2F)c(=O)c1C", "percent effect": -13.48}